± gives the standard deviation. This is a selection; strong and weak results do not stand in their true shares. Many of these values have a large error. Some of the results follow.

One test deals with MILI (PIWIL2) piRISC loaded with L1MC piRNA (26 nt). Description: pre-steady-state target cleavage rate (min^-1); higher = faster piRNA-guided slicing of the target. Particulars: guide: L1MC piRNA 5'p-UAACUAAAUACUAUGCAAGCUGUAGG; auxiliary factor: none (no GTSF1). An outline of the steps: (§1)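 Using HEPES–potassium acetate buffer at 33 °C, 1 nM active affinity-purified piRISC with a single synthetic guide was mixed with 0.1 nM transcribed, DNA-blocked target RNA library for 0–8 or 0–960 min, with or without 500 nM GTSF1 partner protein. Uncleaved targets were sequenced and normalised to depth and to weakly complementary targets, and three trials were pooled with k3 capped at 0.0001 min^-1. A burst-and-steady-state fit gave the pre-steady-state cleavage rate.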
As for UCCUGCUAGAGCUUGCAUAGUAUUUAGUAA, the “pre-steady-state target cleavage rate” value amounted to 0.00257 ± 0.0029.
The same measure, in the same setting: then UCCUGGAUCAGGUUGCAUAGUAUUUACUUA, with 0.00257 ± 0.0029.
Turning to UCCUGGAUGUGCUUGGAUACUAUUUAGUUA, the “pre-steady-state target cleavage rate” value was 0.00169 ± 0.0047.
UCCUGGAUGUGCUUGCAAACUAUUUAGUUA: the “pre-steady-state target cleavage rate” value amounted to 0.00286 ± 0.0031.
The same measure, in the same setting: then UCCUGGAACAGCUUGCCAUAGUAUUUAGUUA, with 0.00159 ± 0.0037; and UCCUGGAACAGCUUGCAUAGUUAUUAGUAA, with 0.00124 ± 0.0059; and UCCUGGAUGUGCUUGCAUAGUAUUCAGUUA, with 0.00227 ± 0.0037.
The same measure, in the same setting: the value for UCCUGGAUGUCGAUGCAUACAAUUUAGUUA was 0.00122 ± 0.005; that for UCCUGCUACAGCUUGCAUAGUAUAUAGUAA was 0.00109 ± 0.0048.
Regarding UCCUCCUACAGCAUGCAUAGUAUUUAGAUA, the “pre-steady-state target cleavage rate” value came out at 0.0025 ± 0.0031.
Still for that read-out and setting: the value for UCCUGGAACAGCUUGCAUAGUAUUUUGAUA was 0.00128 ± 0.0038; that for UCCUGGUACAGCUUGCAUAGGAUUUAGUUA was 0.00231 ± 0.0037.
Same read-out and setting: then UCCUGGUACAGCUUGCAUAGUAUUUACUAA, with 0.00132 ± 0.0054.
For UCCUGGUACAGCUUGCAAAGUAUUUAGAAA, the “pre-steady-state target cleavage rate” value is 0.00103 ± 0.0056.
Still for that read-out and setting: then UCCUGGAACACCUUGCAUAGUAUUUAGAUA, with 0.00259 ± 0.003.
The same measure, in the same setting: the value for UCCUGGAUGUGCUUGCAUAGAAUUUAGAUA was 0.00117 ± 0.0055; that for UCCUGGAACAGCUUGCAUAGUUAAUAGUUA was 0.00197 ± 0.0036.
Still for that read-out and setting: the value for UCCUGGAUGUGCUUGCAUAUUAUUUAGUUA was 0.00294 ± 0.003; that for UCCUGGAUGUCGAUGCAUAGUAUUAACUUA was 0.000135 ± 0.036; that for UCCUGCUACUGCUUGCAUAGUAUUUAGAUA was 0.00107 ± 0.0045.
Consider UCCUGCUACAGCUUGCAUAGUAUUUAGGUA, for which the “pre-steady-state target cleavage rate” value was 0.00181 ± 0.0043.
Take UCCUCCUUCAGCUUCCAUAGUAUUUAGUUA: the “pre-steady-state target cleavage rate” value was 0.00105 ± 0.0056.
Still for that read-out and setting: then UCCUGGAUGACCUUGCAUAGUAUUUUGUUA, with 0.00257 ± 0.0032; and “UCCUGGAUGUCGUUGCAUAGUAAAAUCAAA [g9:g18:cont:t1A]”, with 0.00024 ± 0.019.
Same read-out and setting: the value for UCCUGGAUGUCCUUGCAUAGUAUUUACUUA was 0.00223 ± 0.0034.

Another test has as its system EfPiwi piRISC loaded with L1MC piRNA (26 nt). Description: pre-steady-state target cleavage rate (min^-1); guide: L1MC piRNA 5'p-UAACUAAAUACUAUGCAAGCUGUAGG; MIWI and MILI are mouse PIWI proteins and EfPiwi is from a freshwater sponge; tags in brackets are library labels; higher = faster piRNA-guided slicing of the target. Particulars: auxiliary factor: 500 nM Ephydatia muelleri Gtsf1. An outline of the steps:
as §1
Regarding UCCUGGUACAGCUUGCAUAGUAUUUAGUCA, the “pre-steady-state target cleavage rate” value was 0.00545 ± 0.0021.
In the case of UCCUGCUAGAGCUUGCAUAGUAUUUAGUAA, the “pre-steady-state target cleavage rate” value came to 0.00419 ± 0.0014.
Still for that read-out and setting: then UCCUGGAUCAGGUUGCAUAGUAUUUACUUA, with 0.000855 ± 0.0047; and UCCUGGAUGUGCUUGGAUACUAUUUAGUUA, with 0.000439 ± 0.011.
For UCCUGGAUGUGCUUGCAAACUAUUUAGUUA, the “pre-steady-state target cleavage rate” value is 0.00104 ± 0.0054.
The same measure, in the same setting: the value for UCCUGGAACAGCUUGCCAUAGUAUUUAGUUA was 0.0042 ± 0.0019; that for UCCUGGAACAGCUUGCAUAGUUAUUAGUAA was 0.00454 ± 0.0037.
Take UCCUGGAUGUGCUUGCAUAGUAUUCAGUUA: the “pre-steady-state target cleavage rate” value was determined as 0.00279 ± 0.0024.
Same read-out and setting: then UCCUGGAUGUCGAUGCAUACAAUUUAGUUA, with 0.000208 ± 0.012; and UCCUGGUACAGCAUGGAUAGUAUUUAGUUA, with 0.00254 ± 0.0031.
The same measure, in the same setting: then UCCUGGUACAGGUUGCAAAGUAUUUAGUUA, with 0.00511 ± 0.0028; and UCCUGCUACAGCUUGCAAAGUAUUUAGUAA, with 0.00434 ± 0.0016; and UCCUGCUACAGCUUGCAUAGUAUAUAGUAA, with 0.00354 ± 0.0018.
Still for that read-out and setting: the value for UCCUCCUACAGCAUGCAUAGUAUUUAGAUA was 0.00452 ± 0.0019; that for UCCUGGAACAGCUUGCAUAGUAUUUUGAUA was 0.00265 ± 0.0024.
For the sequence UCCUGGUACAGCUUGCAUAGGAUUUAGUUA, the “pre-steady-state target cleavage rate” value turned out to be 0.00178 ± 0.0033.
As to UCCUGCUACAGCUUCGAUAGUAUUUAGUUA, the “pre-steady-state target cleavage rate” value is 0.00756 ± 0.0026.
On the same count and under the same terms, the value for UCCUGGUACAGCUUGCAUAGUAUUUACUAA was 0.00229 ± 0.003.
Same read-out and setting: the value for UCCUGGUACAGCUUGCAAAGUAUUUAGAAA was 0.00656 ± 0.0038; that for UCCUGGAACACCUUGCAUAGUAUUUAGAUA was 0.0026 ± 0.0026; that for UCCUGGAUGUGCUUGCAUAGAAUUUAGAUA was 0.00136 ± 0.0039.
The same measure, in the same setting: then UCCUCCUACAGCAUGCAUAGUAUUUUGUUA, with 0.00297 ± 0.0021; and UCCUGGAACAGCUUGCAUAGUUAAUAGUUA, with 0.00262 ± 0.0028.
Consider UCCUGGAUGUGCUUGCAAAGUAUUAAGUUA, for which the “pre-steady-state target cleavage rate” value was found to be 0.0026 ± 0.005.
Consider UCCUGGAUGAGCUUGCAUAGUAUUUUGAAA, for which the “pre-steady-state target cleavage rate” value was found to be 0.00297 ± 0.003.
On the same count and under the same terms, the value for UCCUGGAUGUGCUUGCAUAUUAUUUAGUUA was 0.00647 ± 0.0022; that for UCCUGGUACAGCUUGCAUAGUAUCUUAGUUA was 0.00588 ± 0.0027.
Still for that read-out and setting: then UCCUGGAACAGCUUGCAUACAAUUUUCAAA, with 0.000476 ± 0.0083.
Same read-out and setting: the value for UCCUGGAUGUCGAUGCAUAGUAUUAACUUA was 0.00017 ± 0.018; that for UCCUGGUACAGCUAGCAUAGUAUUUUGUUA was 0.00396 ± 0.0023; that for UCCUGCUACUGCUUGCAUAGUAUUUAGAUA was 0.00383 ± 0.0018.
UCCUGCUACAGCUUGCAUAGUAUUUAGGUA: the “pre-steady-state target cleavage rate” value is 0.00342 ± 0.0016.
Same read-out and setting: then UCCUGCUACAGCUUGCAUAGUAUAAUCAAA, with 0.00391 ± 0.0037; and UCCUGGUACAGCAAGCAUAGUAUUUAGUAA, with 0.00171 ± 0.0034.
Still for that read-out and setting: then UCCUCCUUCAGCUUCCAUAGUAUUUAGUUA, with 0.00448 ± 0.0019.
Consider UCCUGGAUGACCUUGCAUAGUAUUUUGUUA, for which the “pre-steady-state target cleavage rate” value worked out at 0.000779 ± 0.0082.
In the case of “UCCUGGAUGUCGUUGCAUAGUAAAAUCAAA [g9:g18:cont:t1A]”, the “pre-steady-state target cleavage rate” value was 0.000146 ± 0.017.
With UCCUGGAUGUGCUUGCAAAGUAUUUAGUUA, the “pre-steady-state target cleavage rate” value turned out to be 0.00905 ± 0.0036.
Take UCCUGGAUGUCCUUGCAUAGUAUUUACUUA: the “pre-steady-state target cleavage rate” value is 0.00202 ± 0.0037.
UCCUGGAUCAGCUUGCAUAGUAUUUAGUGUA: the “pre-steady-state target cleavage rate” value stood at 0.0168 ± 0.0061.

The same test, now with this note: auxiliary factor: none (no Gtsf1).
As to UCCUGGUACAGCUUGCAUAGUAUUUAGUCA, the “pre-steady-state target cleavage rate” value was determined as 0.000355 ± 0.037.
As to UCCUGCUAGAGCUUGCAUAGUAUUUAGUAA, the “pre-steady-state target cleavage rate” value stood at 0.00037 ± 0.014.
Consider UCCUGGAUCAGGUUGCAUAGUAUUUACUUA, for which the “pre-steady-state target cleavage rate” value is 0.000212 ± 0.045.
Same read-out and setting: then UCCUGGAUGUGCUUGGAUACUAUUUAGUUA, with 0.000229 ± 0.039; and UCCUGGAUGUGCUUGCAAACUAUUUAGUUA, with 0.000516 ± 0.015.
Same read-out and setting: the value for UCCUGGAACAGCUUGCCAUAGUAUUUAGUUA was 0.000655 ± 0.011; that for UCCUGGAACAGCUUGCAUAGUUAUUAGUAA was 0.0003 ± 0.031; that for UCCUGGAUGUGCUUGCAUAGUAUUCAGUUA was 0.000916 ± 0.013.
Still for that read-out and setting: the value for UCCUGGAUGUCGAUGCAUACAAUUUAGUUA was 0.00041 ± 0.015; that for UCCUGGUACAGCAUGGAUAGUAUUUAGUUA was 0.000789 ± 0.011.
In the case of UCCUGGUACAGGUUGCAAAGUAUUUAGUUA, the “pre-steady-state target cleavage rate” value stood at 0.000721 ± 0.013.
Take UCCUGCUACAGCUUGCAAAGUAUUUAGUAA: the “pre-steady-state target cleavage rate” value was 0.000302 ± 0.013.
In the case of UCCUGCUACAGCUUGCAUAGUAUAUAGUAA, the “pre-steady-state target cleavage rate” value is 0.000367 ± 0.012.
Same read-out and setting: the value for UCCUCCUACAGCAUGCAUAGUAUUUAGAUA was 0.000264 ± 0.022; that for UCCUGGAACAGCUUGCAUAGUAUUUUGAUA was 0.000657 ± 0.012.
As to UCCUGGUACAGCUUGCAUAGGAUUUAGUUA, the “pre-steady-state target cleavage rate” value amounted to 0.000541 ± 0.016.
Still for that read-out and setting: then UCCUGCUACAGCUUCGAUAGUAUUUAGUUA, with 0.00116 ± 0.0055; and UCCUGGUACAGCUUGCAUAGUAUUUACUAA, with 0.000208 ± 0.038.
Regarding UCCUGGUACAGCUUGCAAAGUAUUUAGAAA, the “pre-steady-state target cleavage rate” value was 0.000181 ± 0.023.
The same measure, in the same setting: then UCCUGGAACACCUUGCAUAGUAUUUAGAUA, with 0.000475 ± 0.013.
Still for that read-out and setting: the value for UCCUGGAUGUGCUUGCAUAGAAUUUAGAUA was 0.000258 ± 0.025; that for UCCUCCUACAGCAUGCAUAGUAUUUUGUUA was 0.000353 ± 0.012.
The same measure, in the same setting: the value for UCCUGGAACAGCUUGCAUAGUUAAUAGUUA was 0.000729 ± 0.018; that for UCCUGGAUGUGCUUGCAAAGUAUUAAGUUA was 0.000595 ± 0.017.
For the sequence UCCUGGAUGAGCUUGCAUAGUAUUUUGAAA, the “pre-steady-state target cleavage rate” value turned out to be 0.00044 ± 0.016.
For the sequence UCCUGGAUGUGCUUGCAUAUUAUUUAGUUA, the “pre-steady-state target cleavage rate” value was determined as 0.00231 ± 0.0056.
Same read-out and setting: then UCCUGGUACAGCUUGCAUAGUAUCUUAGUUA, with 0.000403 ± 0.042.
Same read-out and setting: the value for UCCUGGAACAGCUUGCAUACAAUUUUCAAA was 0.000529 ± 0.014; that for UCCUGGAUGUCGAUGCAUAGUAUUAACUUA was 0.00011 ± 0.071.
On the same count and under the same terms, the value for UCCUGGUACAGCUAGCAUAGUAUUUUGUUA was 0.000565 ± 0.018; that for UCCUGCUACUGCUUGCAUAGUAUUUAGAUA was 0.000339 ± 0.013; that for UCCUGCUACAGCUUGCAUAGUAUUUAGGUA was 0.00046 ± 0.011.
Turning to UCCUGCUACAGCUUGCAUAGUAUAAUCAAA, the “pre-steady-state target cleavage rate” value was found to be 0.000452 ± 0.015.
In the case of UCCUGGUACAGCAAGCAUAGUAUUUAGUAA, the “pre-steady-state target cleavage rate” value worked out at 0.000481 ± 0.013.
Regarding UCCUCCUUCAGCUUCCAUAGUAUUUAGUUA, the “pre-steady-state target cleavage rate” value was 0.000337 ± 0.012.
Same read-out and setting: then UCCUGGAUGACCUUGCAUAGUAUUUUGUUA, with 0.00088 ± 0.014.
Still for that read-out and setting: the value for “UCCUGGAUGUCGUUGCAUAGUAAAAUCAAA [g9:g18:cont:t1A]” was 0.000109 ± 0.066; that for UCCUGGAUGUGCUUGCAAAGUAUUUAGUUA was 0.00172 ± 0.0066.
Regarding UCCUGGAUGUCCUUGCAUAGUAUUUACUUA, the “pre-steady-state target cleavage rate” value amounted to 0.00016 ± 0.042.
Regarding UCCUGGAUCAGCUUGCAUAGUAUUUAGUGUA, the “pre-steady-state target cleavage rate” value amounted to 0.00292 ± 0.006.
